## Screening data

Source: PubChem BioAssay AID1347053 (NCATS, 2019).

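Zika-infected HEK 293 cell cultures, scored for viral NS1 protein via a two-antibody TR-FRET signal at 24 h. Compounds were run as a dilution series spanning roughly 0.00003 to 230 µM. Potency is the fitted AC50 for lowering NS1 signal; a lower value means a more potent inhibitor. Calls come from curve class and a scaled score: inconclusive scores fall between 1 and 39, and actives between 40 and 100.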

Values are in µM. Every entry below has the call inconclusive. These entries are mostly ones the record files as inconclusive; other results of the assay are not listed here. Potencies fitted to partial, single-point or poorly fitting curves are rough. Some entries filed as inconclusive have a full curve. Activity scores are not listed here. An entry listed twice with the same setting is a separate test.

| # | SMILES | fitted potency (µM) | curve |
|---|---|---|---|
| 1 | `Clc1ccccc1C(c1ccccc1)(c1ccccc1)n1cccn1` | 37.22 | inhibitor, single point |
| 2 | `CCOC(=O)[C@@H](N)Cc1ccc(-c2cc(O[C@H](c3ccc(Cl)cc3-n3ccc(C)n3)C(F)(F)F)nc(N)n2)cc1` | 33.17 | inhibitor, single point |
| 3 | `Cc1c(C(=O)Nc2cccc(C(F)(F)F)c2)cc(-c2ccccc2)n1CCCN1CCOCC1` | 37.22 | inhibitor, single point |
| 4 | `O=C(Oc1cccc2cccnc12)c1ccccc1` | 35.48 | inhibitor, single point |
| 5 | `CCCN1CCc2cccc3c2[C@H]1Cc1ccc(O)c(O)c1-3` | 35.48 | inhibitor, single point |
| 6 | `Cc1ccccc1-n1c(Cn2cnc3c(N)ncnc32)nc2cccc(C)c2c1=O` | 4.686 | inhibitor, full curve |
| 7 | `CCCCCOc1ccc(C2SC(=O)NC2=O)cc1OCC` (configuration not stated) | 0.3162 | inhibitor, full curve, poor fit |
| 8 | `COC[C@H]1OC(=O)c2coc3c2[C@@]1(C)C1=C(C3=O)C2CCC(=O)[C@@]2(C)C[C@H]1OC(C)=O` (some centres not stated) | 28.18 | inhibitor, single point |
| 9 | `Ic1ccccc1CNC1C2CCN(CC2)C1C(c1ccccc1)c1ccccc1` (configuration not stated) | 15.85 | inhibitor, single point |
| 10 | `NC/C=C/C(=O)O` | 4.467 | inhibitor, single point |
| 11 | `COc1ccc2c(c[n+](C)c3c4cc5c(cc4ccc23)OCO5)c1OC` | 33.17 | inhibitor, single point |
| 12 | `CN1CCCC(CC2c3ccccc3Sc3ccccc32)C1` (configuration not stated) | 35.48 | inhibitor, single point |
| 13 | `C[C@@H]1[C@@H](CC(C[C@H]2O[C@@H]3O[C@]4(C)CC[C@@H]5[C@H](C)CC[C@@H]([C@H]2C)[C@@]35OO4)C[S+](=O)([O-])c2ccc(COC(=O)N(C)C)cc2)O[C@@H]2O[C@]3(C)CC[C@H]4[C@H](C)CC[C@@H]1[C@@]24OO3` (some centres not stated) | 10.49 | inhibitor, full curve |
| 14 | `O=C1/C(=C/c2ccccc2)C[C@@]2(O)[C@H]3Cc4ccc(O)c5c4[C@@]2(CCN3CC2CC2)[C@H]1O5` | 4.467 | inhibitor, full curve, poor fit |
| 15 | `CC(C)(C)c1cc(C=C(C#N)C#N)cc(C(C)(C)C)c1O` | 35.48 | inhibitor, single point |
| 16 | `CCCCCCCCCCCCCC(=O)O[C@@H]1[C@@H](C)[C@@]2(O)[C@@H](C=C(CO)C[C@@]3(O)C(=O)C(C)=C[C@@H]23)C2C(C)(C)[C@@]21OC(C)=O` (some centres not stated) | 35.48 | inhibitor, single point |
| 17 | `CC(=O)c1c(O)c(C)c(O)c(Cc2c(O)c3c(c(C(=O)/C=C/c4ccccc4)c2O)OC(C)(C)C=C3)c1O` | 19.95 | inhibitor, single point |
| 18 | `Cc1c2ccncc2c(C)c2c1[nH]c1ccccc12` | 35.48 | inhibitor, single point |
| 19 | `COc1ccc2c(c[n+](C)c3c4cc5c(cc4ccc23)OCO5)c1OC` | 31.62 | inhibitor, single point |
| 20 | `CC[C@@]1(O)C(=O)OCc2c1cc1n(c2=O)Cc2c-1nc1ccccc1c2/C=N/OC(C)(C)C` | 1.259 | inhibitor, full curve, poor fit |
| 21 | `O=C1c2cccc3c2[C@H](CCC3)CN1[C@@H]1CN2CCC1CC2` | 35.48 | inhibitor, single point |
| 22 | `c1ccc2c(c1)[I+]c1ccccc1-2` | 35.48 | inhibitor, single point |
| 23 | `FC(F)(F)c1ccc(Nc2nc3ccc(Oc4ccnc(-c5ncc(C(F)(F)F)[nH]5)c4)cc3[nH]2)cc1` | 37.22 | inhibitor, partial curve, poor fit |
| 24 | `CCn1cnc2c(Nc3cccc(Cl)c3)nc(N[C@@H]3CCCC[C@@H]3N)nc21` | 35.48 | inhibitor, single point |
| 25 | `Cc1nc2sccn2c(=O)c1CCN1CCC(=C(c2ccc(F)cc2)c2ccc(F)cc2)CC1` | 35.48 | inhibitor, single point |

Repeated from the top, 2 entries:

{"smiles": "Clc1ccccc1C(c1ccccc1)(c1ccccc1)n1cccn1", "fitted potency (µM)": "37.22", "curve": "inhibitor, single point"}
{"smiles": "CCOC(=O)[C@@H](N)Cc1ccc(-c2cc(O[C@H](c3ccc(Cl)cc3-n3ccc(C)n3)C(F)(F)F)nc(N)n2)cc1", "fitted potency (µM)": "33.17", "curve": "inhibitor, single point"}